± gives the standard deviation of the averaged measurements. The list shows a part of the results. Repeats in this data set agree poorly, so a single value says little.
System: IL-6-GFP PC-9GR
Assay: IL-6-GFP fluorescence relative to DMSO control (fraction of control); higher = more IL-6-GFP expression
Settings: compound concentration: 10 uM; treatment time: 48 h
Description: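 IL-6-GFP-overexpressing PC-9 and PC-9GR EGFR-mutant lung cancer cells (3000 cells/well, 96-well) were treated for 48 h with each compound of the Selleck L2000 library at 10 uM. IL-6-GFP fluorescence was read on a high-content screening system, and viability by CCK-8 absorbance on a parallel plate set. Each value was normalised as compound well / DMSO control well; two independent replicates.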

SMILES	IL-6-GFP fluorescence
CN(C)C/C=C/C(=O)Nc1cc2c(Nc3ccc(F)c(Cl)c3)ncnc2cc1OC1CCOC1.O=C(O)/C=C\C(=O)O.O=C(O)/C=C\C(=O)O (stereo not given) [Afatinib (BIBW2992) Dimaleate]	1.49 ± 0.51
O=C(O)CCCN1CCC(OC(c2ccc(Cl)cc2)c2ccccn2)CC1 (stereo not given) [Bepotastine]	0.933 ± 0.019
CCC(=O)NS(=O)(=O)c1ccc(-c2c(-c3ccccc3)noc2C)cc1 [Parecoxib]	0.438 ± 0.38
Cl.c1ccc2c(c1)CCCC2C1=NCCN1 (stereo not given) [Tetrahydrozoline HCl]	0.646 ± 0.3
CCC(C)(Oc1ccc(C2(c3ccc(OC(C)(CC)C(=O)O)cc3)CCCCC2)cc1)C(=O)O (stereo not given) [Clinofibrate]	0.929 ± 0.051
Cc1nc(Nc2ccc(F)cc2)nc(N2CCc3ccccc3C2C)c1C.Cl (stereo not given) [Revaprazan Hydrochloride]	1.01 ± 0.063
O=C([O-])Cc1ccccc1Nc1c(Cl)cccc1Cl.[K+] [Diclofenac Potassium]	1 ± 0.021
C[S+](C)CCC(N)C(=O)O.[Cl-] (stereo not given)	0.707 ± 0.043
CC12CCC3c4ccc(O)cc4CC(CCCCCCCCCS(=O)CCCC(F)(F)C(F)(F)F)C3C1CCC2O (stereo not given) [Fulvestrant]	1.07 ± 0.046
CN1CCC(=C2c3ccccc3CCc3cccnc32)CC1.O=C(O)/C=C\C(=O)O.O=C(O)/C=C\C(=O)O [Azatadine dimaleate]	0.82946 ± 0.00015
CCc1nc(C(N)=O)c(Nc2ccc(N3CCC(N4CCN(C)CC4)CC3)c(OC)c2)nc1NC1CCOCC1 [Gilteritinib (ASP2215)]	1.12 ± 0.2
Nc1nc(Cl)nc2c1ncn2C1OC(CO)C(O)C1F (stereo not given) [Clofarabine]	1.052 ± 0.0093
CCC1(O)C(=O)OCc2c1cc1n(c2=O)Cc2cc3c(CN(C)C)c(O)ccc3nc2-1.Cl (stereo not given) [Topotecan HCl]	1.71 ± 0.22
COc1ccnc(CS(=O)c2nc3ccc(-n4cccc4)cc3[nH]2)c1C (stereo not given) [Ilaprazole]	0.99 ± 0.32
COC1CC2CCC(C)C(O)(O2)C(=O)C(=O)N2CCCCC2C(=O)OC(C(C)CC2CCC(OP(C)(C)=O)C(OC)C2)CC(=O)C(C)/C=C(\C)C(O)C(OC)C(=O)C(C)CC(C)/C=C/C=C/C=C/1C (stereo not given) [Ridaforolimus (Deforolimus, MK-8669)]	1.04 ± 0.062
CC(C)=CCOc1ccc(/C=C/C(=O)c2ccc(OCC=C(C)C)cc2OCC(=O)O)cc1 [Sofalcone]	0.902 ± 0.13
CC(C)C1C(=O)NC(CCCNC(=N)N)C(=O)NCC(=O)NC(CC(=O)O)C(=O)NC(Cc2ccccc2)C(=O)N1C.O=C(O)C(F)(F)F (stereo not given)	0.833 ± 0.17
CCc1cc2c(cc1N1CCC(N3CCOCC3)CC1)C(C)(C)c1[nH]c3cc(C#N)ccc3c1C2=O	1.06 ± 0.2
COc1cc2c(Nc3ccc(Br)cc3F)ncnc2cc1OCC1CCN(C)CC1 [Vandetanib (ZD6474)]	0.413 ± 0.29
Nc1ccc(S(=O)(=O)Nc2ccnn2-c2ccccc2)cc1 [Sulfaphenazole]	0.845 ± 0.041

SMILES	IL-6-GFP fluorescence
O=C(c1ccc(F)c(F)c1Nc1ccc(I)cc1F)N1CC(O)(C2CCCCN2)C1 (stereo not given) [Cobimetinib (GDC-0973, RG7420)]	1.03 ± 0.084
CN1C(=O)/C(=C2/C(=O)Nc3ccccc32)c2ccccc21 [Meisoindigo]	0.742 ± 0.17
CC(=O)Oc1cccc2c1C(=O)c1c(OC(C)=O)cc(C(=O)O)cc1C2=O [Diacerein]	0.715 ± 0.049
CNC(=O)c1c(C)oc2cc(Oc3ncnc4cc(OC)c(OC)cc34)ccc12 [Fruquintinib]	0.906 ± 0.13
Cc1nnc(C(=O)NC(C)(C)c2nc(C(=O)NCc3ccc(F)cc3)c(O)c(=O)n2C)o1 [Raltegravir (MK-0518)]	0.829 ± 0.017
COc1cc2nccc(Oc3ccc(NC(=O)NC4CC4)c(Cl)c3)c2cc1C(N)=O [Lenvatinib (E7080)]	0.909 ± 0.039
COc1ccc(C2OCC3C(c4cc(OC)c(OC)c(OC)c4)OCC23)cc1OC (stereo not given) [Magnolin]	0.8644 ± 0.0067
Cc1ccc(C2OC(CO)C(O)C(O)C2O)cc1Cc1ccc(-c2ccc(F)cc2)s1 (stereo not given) [Canagliflozin]	0.883 ± 0.14
CCC1(O)C(=O)OCc2c1cc1n(c2=O)Cc2cc3cc(O)ccc3nc2-1 (stereo not given) [Hydroxy Camptothecine]	1.39 ± 0.26
COc1cc2nccc(Oc3ccc(NC(=O)C4(C(=O)Nc5ccc(F)cc5)CC4)cc3)c2cc1OC	1.09 ± 0.25
CC(=O)OCC1OC(n2ccc(=O)[nH]c2=O)C(OC(C)=O)C1OC(C)=O (stereo not given) [uridine triacetate]	0.808 ± 0.031
Nc1ncn(C2OC(CO)C(O)C2O)c(=O)n1 (stereo not given) [Azacitidine]	0.672 ± 0.28
COc1nc2ccc(Br)cc2cc1C(c1ccccc1)C(O)(CCN(C)C)c1cccc2ccccc12.O=C(O)/C=C/C(=O)O (stereo not given) [Bedaquiline fumarate]	0.847 ± 0.21
O=C(/C=C/C=C/c1ccc2c(c1)OCO2)N1CCCCC1 [Piperine]	0.902 ± 0.29
CC(=O)Nc1ccccc1 [Acetanilide]	0.949 ± 0.029
N#Cc1ccc(C2CCCc3cncn32)cc1 (stereo not given) [Fadrozole]	1.16 ± 0.3
Cc1coc2c1C(=O)C(=O)c1c-2ccc2c1CCCC2(C)C [Tanshinone IIA]	0.945 ± 0.061
O=NN(CCCl)C(=O)NCCCl [Carmustine]	0.914 ± 0.032
CC(C)c1c(C(=O)Nc2ccccc2)c(-c2ccccc2)c(-c2ccc(F)cc2)n1CCC(O)CC(O)CC(=O)O (stereo not given) [atorvastatin]	0.814 ± 0.18
CCOC(=O)c1c(N)sc2c1CCN(Cc1ccccc1)C2.Cl [Tinoridine hydrochloride]	1.37 ± 0.015

By substructure, the compounds so far containing a carbonyl joined to an NH by a bond outside any ring (ten)
SMILES	IL-6-GFP fluorescence
CN(C)C/C=C/C(=O)Nc1cc2c(Nc3ccc(F)c(Cl)c3)ncnc2cc1OC1CCOC1.O=C(O)/C=C\C(=O)O.O=C(O)/C=C\C(=O)O (stereo not given) [Afatinib (BIBW2992) Dimaleate]	1.49 ± 0.51
CCC(=O)NS(=O)(=O)c1ccc(-c2c(-c3ccccc3)noc2C)cc1 [Parecoxib]	0.438 ± 0.38
CCc1nc(C(N)=O)c(Nc2ccc(N3CCC(N4CCN(C)CC4)CC3)c(OC)c2)nc1NC1CCOCC1 [Gilteritinib (ASP2215)]	1.12 ± 0.2
CNC(=O)c1c(C)oc2cc(Oc3ncnc4cc(OC)c(OC)cc34)ccc12 [Fruquintinib]	0.906 ± 0.13
Cc1nnc(C(=O)NC(C)(C)c2nc(C(=O)NCc3ccc(F)cc3)c(O)c(=O)n2C)o1 [Raltegravir (MK-0518)]	0.829 ± 0.017
COc1cc2nccc(Oc3ccc(NC(=O)NC4CC4)c(Cl)c3)c2cc1C(N)=O [Lenvatinib (E7080)]	0.909 ± 0.039
COc1cc2nccc(Oc3ccc(NC(=O)C4(C(=O)Nc5ccc(F)cc5)CC4)cc3)c2cc1OC	1.09 ± 0.25
CC(=O)Nc1ccccc1 [Acetanilide]	0.949 ± 0.029
O=NN(CCCl)C(=O)NCCCl [Carmustine]	0.914 ± 0.032
CC(C)c1c(C(=O)Nc2ccccc2)c(-c2ccccc2)c(-c2ccc(F)cc2)n1CCC(O)CC(O)CC(=O)O (stereo not given) [atorvastatin]	0.814 ± 0.18
